These are yes or no findings as the source states them, for the method shown. In cells and extracts the contact can be indirect. Some results given as binding are weak or reduced against the parent protein; the word gives no strength.
How the values were obtained:
GFP-RAB7A = GFP-RAB7A (UniProt P51149); test: co-IP; extracts of transfected HEK293T cells (10 mM Tris/Cl pH 7.4, 150 mM NaCl, 0.5 mM EDTA, 0.5% Nonidet P-40 Substitute) incubated with GFP-TRAP Magnetic Agarose for 1 h at 4°C; beads immunoblotted for GFP and endogenous SPG21; GFP alone as control
GFP-RAB7A-T22N = GFP-RAB7A-T22N (UniProt P51149); test: as above

Amino acid sequences for entries named in this document (tags omitted). A change or cut given only in a name is not applied to a line headed by its entry.
UniProt P51149: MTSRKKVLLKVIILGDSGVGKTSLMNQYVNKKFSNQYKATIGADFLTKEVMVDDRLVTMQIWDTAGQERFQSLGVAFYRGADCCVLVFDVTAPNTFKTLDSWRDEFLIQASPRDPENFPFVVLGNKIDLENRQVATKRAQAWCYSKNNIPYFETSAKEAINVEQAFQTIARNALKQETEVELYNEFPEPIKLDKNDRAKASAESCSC

binding (GFP-RAB7A): binds | binding (GFP-RAB7A-T22N): binds
B1: SPG21 (endogenous) (protein, UniProt Q9NZD8 1-308)
chain: MGEIKVSPDYNWFRGTVPLKKIIVDDDDSKIWSLYDAGPRSIRCPLIFLPPVSGTADVFFRQILALTGWGYRVIALQYPVYWDHLEFCDGFRKLLDHLQLDKVHLFGASLGGFLAQKFAEYTHKSPRVHSLILCNSFSDTSIFNQTWTANSFWLMPAFMLKKIVLGNFSSGPVDPMMADAIDFMVDRLESLGQSELASRLTLNCQNSYVEPHKIRDIPVTIMDVFDQSALSTEAKEEMYKLYPNARRAHLKTGGNFPYLCRSAEVNLYVQIHLLQFHGTKYAAIDPSMVSAEELEVQKGSLGISQEEQ

From publication PMC12483374
